Where two headings read alike, the source gives them in different places.
Test system: ILM model substrate (silk granules)
Details: for λmax Reference (779 nm) / λmax Reference (588 nm) / λmax Reference (632-635 nm): without model substrate; for λmax Reference (632-635 nm): 632 nm (7a), 634 nm (7b, 7d), 635 nm (7c); for λmax Reference (585 nm): dye solution without model substrate

CC1(C)C(/C=C/C=C/C=C/C=C2\N(CCCCS(=O)(=O)O)c3ccc4ccccc4c3C2(C)C)=[N+](CCCCS(=O)(=O)[O-])c2ccc3ccccc3c21 [ICG, Indocyanine green, reference compound]
λmax Reference (779 nm) (0.005 mg/mL in double-distilled water): 0.0226
λmax Reference (779 nm) (0.01 mg/mL in double-distilled water): 0.0162
λmax Reference (779 nm) (0.02 mg/mL in double-distilled water): 0.0477
λmax Reference (779 nm) (0.04 mg/mL in double-distilled water): 3.5822
absorption (up to a concentration of 0.02 mg/mL, double-distilled water): virtually no absorption

CCCCCCCCCCCC[N+](C)(C)CCCNc1ccc(NCCC[N+](C)(C)CCCCCCCCCCCC)c2c1C(=O)c1ccccc1C2=O [7d, N,N′(((9,10-dioxo-9,10-dihydroanthracene-1,4-diyl)bis(azanediyl))bis(propane-3,1-diyl))bis(N,N-dimethyldodecan-1-aminium) Bromide]
λmax Reference (588 nm) (0.005 mg/mL in PBS pH 7.4): 0.0369
λmax Reference (632-635 nm) (0.005 mg/mL in PBS pH 7.4): 0.0304
λmax Reference (588 nm) (0.01 mg/mL in PBS pH 7.4): 0.1045
λmax Reference (632-635 nm) (0.01 mg/mL in PBS pH 7.4): 0.0845
λmax Reference (588 nm) (0.02 mg/mL in PBS pH 7.4): 0.2440
λmax Reference (632-635 nm) (0.02 mg/mL in PBS pH 7.4): 0.1949
λmax Reference (588 nm) (0.04 mg/mL in PBS pH 7.4): 0.3649
λmax Reference (632-635 nm) (0.04 mg/mL in PBS pH 7.4): 0.2895
λmax Reference (588 nm) (0.08 mg/mL in PBS pH 7.4): 0.8039
λmax Reference (632-635 nm) (0.08 mg/mL in PBS pH 7.4): 0.6368
λmax Reference (588 nm) (0.16 mg/mL in PBS pH 7.4): 1.8155
λmax Reference (632-635 nm) (0.16 mg/mL in PBS pH 7.4): 1.4306

CCCCCCCC[N+](C)(C)CCCNc1ccc(NCCC[N+](C)(C)CCCCCCCC)c2c1C(=O)c1ccccc1C2=O [7b, N,N′-(((9,10-dioxo-9,10-dihydroanthracene-1,4-diyl)bis(azanediyl))bis(propane-3,1-diyl))bis(N,N-dimethyloctan-1-aminium) bromide]
λmax Reference (588 nm) (0.005 mg/mL in PBS pH 7.4): 0.0733
λmax Reference (632-635 nm) (0.005 mg/mL in PBS pH 7.4): 0.0930
λmax Reference (588 nm) (0.01 mg/mL in PBS pH 7.4): 0.1508
λmax Reference (632-635 nm) (0.01 mg/mL in PBS pH 7.4): 0.1890
λmax Reference (588 nm) (0.02 mg/mL in PBS pH 7.4): 0.3142
λmax Reference (632-635 nm) (0.02 mg/mL in PBS pH 7.4): 0.3881
λmax Reference (588 nm) (0.04 mg/mL in PBS pH 7.4): 0.6307
λmax Reference (632-635 nm) (0.04 mg/mL in PBS pH 7.4): 0.7606
λmax Reference (588 nm) (0.08 mg/mL in PBS pH 7.4): 1.2728
λmax Reference (632-635 nm) (0.08 mg/mL in PBS pH 7.4): 1.4791
λmax Reference (588 nm) (0.16 mg/mL in PBS pH 7.4): 2.4402
λmax Reference (632-635 nm) (0.16 mg/mL in PBS pH 7.4): 2.6985

CCOc1ccc(Nc2ccc(/C(=C3C=C/C(=[N+](/CC)Cc4cccc(S(=O)(=O)[O-])c4)C=C/3C)c3ccc(N(CC)Cc4cccc(S(=O)(=O)[O-])c4)cc3C)cc2)cc1.[Na+] [BBG, Brilliant Blue G, reference compound]
λmax Reference (585 nm) (0.005 mg/mL in PBS pH 7.4): 0.1241
λmax Reference (585 nm) (0.01 mg/mL in PBS pH 7.4): 0.3755
λmax Reference (585 nm) (0.02 mg/mL in PBS pH 7.4): 0.835
λmax Reference (585 nm) (0.04 mg/mL in PBS pH 7.4): 1.6741
λmax Reference (585 nm) (0.08 mg/mL in PBS pH 7.4): 3.2859

CCCC[N+](C)(C)CCCNc1ccc(NCCC[N+](C)(C)CCCC)c2c1C(=O)c1ccccc1C2=O [7a, N,N′=(((9,10-dioxo-9,10-dihydroanthracene-1,4-diyl)bis(azanediyl))bis(propane-3,1-diy1))bis(N,N-dimethylbutan-1-aminium) bromide]
λmax Reference (588 nm) (0.005 mg/mL in PBS pH 7.4): 0.0932
λmax Reference (632-635 nm) (0.005 mg/mL in PBS pH 7.4): 0.1159
λmax Reference (588 nm) (0.01 mg/mL in PBS pH 7.4): 0.2000
λmax Reference (632-635 nm) (0.01 mg/mL in PBS pH 7.4): 0.2448
λmax Reference (588 nm) (0.02 mg/mL in PBS pH 7.4): 0.3868
λmax Reference (632-635 nm) (0.02 mg/mL in PBS pH 7.4): 0.4640
λmax Reference (588 nm) (0.04 mg/mL in PBS pH 7.4): 0.7611
λmax Reference (632-635 nm) (0.04 mg/mL in PBS pH 7.4): 0.8862
λmax Reference (588 nm) (0.08 mg/mL in PBS pH 7.4): 1.500
λmax Reference (632-635 nm) (0.08 mg/mL in PBS pH 7.4): 1.6571
λmax Reference (588 nm) (0.16 mg/mL in PBS pH 7.4): 2.8594
λmax Reference (632-635 nm) (0.16 mg/mL in PBS pH 7.4): 2.9961

CCCCCCCCCC[N+](C)(C)CCCNc1ccc(NCCC[N+](C)(C)CCCCCCCCCC)c2c1C(=O)c1ccccc1C2=O [7c, N,N′=(((9,10-dioxo-9,10-dihydroanthracene-1,4-diyl)bis(azanediyl))bis(propane-3,1-diyl))bis(N,N-dimethyldecan-1-aminium) Bromide]
λmax Reference (588 nm) (0.005 mg/mL in PBS pH 7.4): 0.0503
λmax Reference (632-635 nm) (0.005 mg/mL in PBS pH 7.4): 0.0633
λmax Reference (588 nm) (0.01 mg/mL in PBS pH 7.4): 0.124
λmax Reference (632-635 nm) (0.01 mg/mL in PBS pH 7.4): 0.1476
λmax Reference (588 nm) (0.02 mg/mL in PBS pH 7.4): 0.2708
λmax Reference (632-635 nm) (0.02 mg/mL in PBS pH 7.4): 0.2786
λmax Reference (588 nm) (0.04 mg/mL in PBS pH 7.4): 0.5298
λmax Reference (632-635 nm) (0.04 mg/mL in PBS pH 7.4): 0.5068
λmax Reference (588 nm) (0.08 mg/mL in PBS pH 7.4): 1.0636
λmax Reference (632-635 nm) (0.08 mg/mL in PBS pH 7.4): 0.9575
λmax Reference (588 nm) (0.16 mg/mL in PBS pH 7.4): 2.2754
λmax Reference (632-635 nm) (0.16 mg/mL in PBS pH 7.4): 1.9492

— patent US20230181768A1, “TISSUE-TARGETING COMPLEX” (PHARMPUR GMBH, priority 2017, published 2023)
